# Measurements: patent US20200316211A1, “LOCALLY ACTING TOLL-LIKE RECEPTOR 7 (TLR7) AND/OR TLR8 AGONIST IMMUNOTHERAPY COMPOUNDS AND THEIR USES” (Altimmune UK Limited, priority 2019, published 2020)
# Not every detail of the peptide structures is certain; ends, links or a residue may be inferred. For part of these data: For at least one compound, name, drawing or mass did not settle the structure. Some compounds share one wording; it may come from a single statement. *1 amine or outer side, *2 acyl side, *3 side chain or, on linkers, in order; H or OH if unused. Where a SMILES comes first, the peptide text is derived from it. Side-chain parts run from the residue outwards. [ ]: non-standard residue; d: D form. The star is where a group is joined. ξ: configuration not given here. X1 = CCCCc1nc2c(N)nc3ccccc3c2n1Cc1ccc(CNC(=O)COCC(=O)*)cc1; X2 = COCCc1nc2c(N)nc3ccccc3c2n1Cc1ccc(CN*)cc1; X3 = CCCCc1nc2c(N)nc3ccccc3c2n1Cc1ccc(CN*)cc1; ξisoGln = NC(=O)C(CCC(=O)[*:2])N[*:1]; PABC = O=C(OCc1ccc(N[*:1])cc1)[*:2]; PEG6 = NCCOCCOCCOCCOCCOCCOCCC(=O)O; Cit = NC(=O)NCCC[C@H](N)C(=O)O; PEG3 = NCCOCCOCCOCCC(=O)O
# Tests used:
# [1] = tested on: CT-26 (colon carcinoma) tumor cells; assay: Example 8 intratumoral treatment, CT26 model; type: in vivo, BALB/c mice; conditions: one intratumoral injection, 11, 33, 100 nmol (kHL-12 100 nmol); example written in present tense
# [2] = tested on: CT26 colon carcinoma tumor; assay: Intratumoral kHL-12 with immune checkpoint inhibitors, bilateral CT26 tumor model; type: in vivo, BALB/c mice; conditions: kHL-12 IT in combination with anti-CTLA-4 IP; FIG. 8
Compound,Tumor growth [1],Overall survival [2]
"CCCCc1nc2c(N)nc3ccccc3c2n1Cc1ccc(CNC(=O)OCc2ccc(NC(=O)[C@H](CCCNC(N)=O)NC(=O)[C@@H](NC(=O)CCOCCOCCOCCOCCOCCOCCNC(=O)CCC(NC(=O)[C@H](CC(C)C)NC(=O)[C@H](CCCNC(=N)N)NC(=O)[C@H](CCCNC(=N)N)NC(=O)[C@H](CC(C)C)NC(=O)[C@H](CC(C)C)NC(=O)[C@H](Cc3c[nH]cn3)NC(=O)[C@H](C)NC(=O)[C@H](CC(C)C)NC(=O)[C@H](CC(C)C)NC(=O)[C@H](C)NC(=O)[C@H](CC(C)C)NC(=O)[C@H](CC(C)C)NC(=O)[C@H](C)NC(=O)[C@H](Cc3c[nH]cn3)NC(=O)[C@H](CC(C)C)NC(=O)[C@H](CC(C)C)NC(=O)[C@H](CCCNC(=N)N)NC(=O)[C@H](CCCNC(=N)N)NC(C)=O)C(N)=O)C(C)C)cc2)cc1 (stereo partly drawn) [HL-6X2, Ac-RRLLHALLALLAHLLRRLE(PEG6-Val-Cit-PABC-IMDQ)—NH2] (Ac-RRLLHALLALLAHLLRRL[ξisoGln][PEG6]V[Cit][PABC]-X3)",capable of inhibiting and/or slowing the growth of cancer in vivo,–
"COCCc1nc2c(N)nc3ccccc3c2n1Cc1ccc(CNC(=O)OCc2ccc(NC(=O)[C@H](CCCNC(N)=O)NC(=O)[C@@H](NC(=O)CCOCCOCCOCCOCCOCCOCCNC(=O)CCC(NC(=O)[C@H](CC(C)C)NC(=O)[C@H](CCCNC(=N)N)NC(=O)[C@H](CCCNC(=N)N)NC(=O)[C@H](CC(C)C)NC(=O)[C@H](CC(C)C)NC(=O)[C@H](Cc3c[nH]cn3)NC(=O)[C@H](C)NC(=O)[C@H](CC(C)C)NC(=O)[C@H](CC(C)C)NC(=O)[C@H](C)NC(=O)[C@H](CC(C)C)NC(=O)[C@H](CC(C)C)NC(=O)[C@H](C)NC(=O)[C@H](Cc3c[nH]cn3)NC(=O)[C@H](CC(C)C)NC(=O)[C@H](CC(C)C)NC(=O)[C@H](CCCNC(=N)N)NC(=O)[C@H](CCCNC(=N)N)NC(C)=O)C(N)=O)C(C)C)cc2)cc1 (stereo partly drawn) [HL-6X3, Ac-RRLLHALLALLAHLLRRLE(PEG6-Val-Cit-PABC-IM3)—NH2] (Ac-RRLLHALLALLAHLLRRL[ξisoGln][PEG6]V[Cit][PABC]-X2)",capable of inhibiting and/or slowing the growth of cancer in vivo,–
"CCCCc1nc2c(N)nc3ccccc3c2n1Cc1ccc(CNC(=O)COCC(=O)NCCOCCOCCOCCC(=O)NCCCC[C@H](NC(=O)[C@H](CC(C)C)NC(=O)[C@H](CCCNC(=N)N)NC(=O)[C@H](CCCNC(=N)N)NC(=O)[C@H](CC(C)C)NC(=O)[C@H](CC(C)C)NC(=O)[C@H](Cc2c[nH]cn2)NC(=O)[C@H](C)NC(=O)[C@H](CC(C)C)NC(=O)[C@H](CC(C)C)NC(=O)[C@H](C)NC(=O)[C@H](CC(C)C)NC(=O)[C@H](CC(C)C)NC(=O)[C@H](C)NC(=O)[C@H](Cc2c[nH]cn2)NC(=O)[C@H](CC(C)C)NC(=O)[C@H](CC(C)C)NC(=O)[C@H](CCCNC(=N)N)NC(=O)[C@H](CCCNC(=N)N)NC(=O)[C@@H](N)CCCCNC(C)=O)C(N)=O)cc1 [kHL-12, K(Ac)—RRLLHALLALLAHLLRRLK(ADJ12)-NH2] (H-K(Ac)RRLLHALLALLAHLLRRLK([PEG3-X1])-NH2; N-terminus and C-terminus assumed)",–,synergistic effect
